According to PubChem BioAssay AID248 (DTP/NCI, 2004):
The list shows only some results of the screen, not a fair sample: it is rich in T/C values a quarter to a half above the control, in often repeated tests (any T/C) and in doses without a T/C. Other doses and runs of a compound stand elsewhere. T/C gives the treated animals as a percentage of the vehicle group. Some entries give survivors of the animals treated and no T/C: the source files T/C as zero there, which appears to mark a toxic dose or a test without result, not a measured value. Some survivor counts are full or nearly so, which does not show that the dose was tolerated: survival well below the control is almost never listed, so the zero probably covers shortened survival too. Counts of survivors are from the toxicity check (mostly the fifth day) where no day follows; animals may have died later. Schedules are NCI's codes, read here as Q, the interval in days (D) or hours (H), X, the number of doses. Some schedules carry Z or #; the key to these is not given. Some structures stand for samples that the source files as different forms (salt, stereo form or complex); doses refer to the form tested. Some entries hold several experiments; their values stand side by side, smallest first. For survival time, this PubChem deposit counts one and a half times the control or more as active, and values a quarter to a half above the control carry no call in these data; other NCI protocols may use other cut-offs. Some T/C values are followed by the survivors on the day toxicity was checked, most often the fifth; without a count, all were alive then.

Test system: L1210 leukemia ip in BDF1 mice, survival T/C
Test: NCI In Vivo Anticancer Drug Screen. Data for tumor model L1210 Leukemia (intraperitoneal) in B6D2F1 (BDF1) mice
Conditions: T/C endpoint: mean survival time, higher T/C = longer survival
[1] = dose: 400.0 mg/kg/injection, schedule: Q01DX001 (ip), vehicle: saline
[2] = dose: 400.0 mg/kg/injection, schedule: Q01DX009 (ip), vehicle: saline
[3] = dose: 200.0 mg/kg/injection, schedule: Q04DX003 (ip), vehicle: saline
[4] = dose: 400.0 mg/kg/injection, schedule: Q04DX003 (ip), vehicle: saline

## Cc1c([N+](=O)[O-])cc(C(C)(C)C)c(OC(=O)Nc2ccccc2)c1[N+](=O)[O-]
dose: 100.0 mg/kg/injection, schedule: Q04DX003 (ip), vehicle: Klucel (hydroxypropylcellulose) (HPC)
  survivor count: 0 of 6
dose: 200.0 mg/kg/injection, schedule: Q04DX003 (ip), vehicle: Klucel (hydroxypropylcellulose) (HPC)
  survivor count: 0 of 6
dose: 400.0 mg/kg/injection, schedule: Q04DX003 (ip), vehicle: Klucel (hydroxypropylcellulose) (HPC)
  survivor count: 0 of 6

## O=S1(=O)CC(N2CCCCC2)C1CN1CCCCC1 (stereo unspecified)
dose: 300.0 mg/kg/injection, schedule: Q01DX001 (ip), vehicle: saline
  survivor count: 0 of 6

## CCN(CC)CCCC#N
[1]
  survivor count: 1 of 4

## Cc1ccc(C#CP(C#Cc2ccc(C)cc2)C#Cc2ccc(C)cc2)cc1
dose: 50.0 mg/kg/injection, schedule: Q01DX009 (ip), vehicle: saline with Tween-80
  survivor count: 3 of 3
dose: 200.0 mg/kg/injection, schedule: Q01DX009 (ip), vehicle: saline with Tween-80
  survivor count: 3 of 3

## OCC1OC(n2cnc3c([Se]Cc4ccccn4)ncnc32)C(O)C1O (stereo unspecified)
dose: 25.0 mg/kg/injection, schedule: Q01DX009 (ip), vehicle: saline
  survivor count: 2 of 6
dose: 50.0 mg/kg/injection, schedule: Q01DX009 (ip), vehicle: saline
  survivor count: 0 of 6
dose: 100.0 mg/kg/injection, schedule: Q01DX005 (ip), vehicle: saline
  survivor count: 0 of 6
dose: 100.0 mg/kg/injection, schedule: Q01DX009 (ip), vehicle: saline
  survivor count: 0 of 6
dose: 200.0 mg/kg/injection, schedule: Q01DX005 (ip), vehicle: saline
  survivor count: 0 of 6

## CC(=O)C(C)=P(c1ccccc1)(c1ccccc1)c1ccccc1
dose: 200.0 mg/kg/injection, schedule: Q01DX009 (ip), vehicle: saline
  survivor count: 0 of 6
[2]
  survivor count: 0 of 6

## CN(Cc1cnc2nc(N)nc(N)c2n1)c1c(Cl)cc(C(=O)NC(CCC(=O)O)C(=O)O)cc1Br (stereo unspecified)
dose: 6.25 mg/kg/injection, schedule: Q01DX Z (ip), vehicle: saline
  T/C: 143 % of control
dose: 100.0 mg/kg/injection, schedule: Q01DX Z (ip), vehicle: saline
  T/C: 125 % of control
dose: 400.0 mg/kg/injection, schedule: Q01DX Z (ip), vehicle: saline
  survivor count: 5 of 6

## CCOC(=O)NNC(=S)Nc1cccc(C(F)(F)F)c1
dose: 400.0 mg/kg/injection, schedule: Q04DX002 (ip), vehicle: saline with Tween-80
  survivor count: 1 of 3

## NC(=S)N/N=C(/c1cccs1)C1CC1
dose: 15.0 mg/kg/injection, schedule: Q01DX Z (ip), vehicle: carboxymethylcellulose (CMC)
  survivor count: 0 of 6 and 3 of 6
dose: 30.0 mg/kg/injection, schedule: Q01DX Z (ip), vehicle: carboxymethylcellulose (CMC)
  survivor count: 0 of 6
dose: 32.0 mg/kg/injection, schedule: Q01DX Z (oral), vehicle: carboxymethylcellulose (CMC)
  survivor count: 0 of 6
dose: 60.0 mg/kg/injection, schedule: Q01DX Z (ip), vehicle: carboxymethylcellulose (CMC)
  survivor count: 0 of 6
dose: 120.0 mg/kg/injection, schedule: Q01DX Z (ip), vehicle: carboxymethylcellulose (CMC)
  survivor count: 0 of 6

## O=[N+]([O-])c1ccccc1N=Nc1c(O)[nH]c2c(Cl)cc(Cl)cc12
dose: 200.0 mg/kg/injection, schedule: Q01DX001 (ip), vehicle: saline
  survivor count: 3 of 6
[1]
  survivor count: 1 of 6

## C#CCOCCCC(=O)O
[2]
  survivor count: 1 of 6

## CCCCn1c(C)nc2c(N)cc(C(F)(F)F)cc21
dose: 100.0 mg/kg/injection, schedule: Q01DX001 (ip), vehicle: Klucel (hydroxypropylcellulose) (HPC)
  T/C: 130 % of control

## C=CCOCC(O)CN(C)CCCC (stereo unspecified)
dose: 200.0 mg/kg/injection, schedule: Q01DX009 (ip), vehicle: Klucel (hydroxypropylcellulose) (HPC)
  survivor count: 0 of 6
[3]
  survivor count: 0 of 6
[4]
  survivor count: 0 of 6

## CCCCCCCCCCCCSC(=N)N
dose: 50.0 mg/kg/injection, schedule: Q01DX009 (ip), vehicle: acetone
  survivor count: 3 of 6
dose: 50.0 mg/kg/injection, schedule: Q04DX003 (ip), vehicle: saline
  T/C: 135 % of control [5 of 6 alive]
dose: 75.0 mg/kg/injection, schedule: Q04DX003 (ip), vehicle: saline
  survivor count: 4 of 6
dose: 100.0 mg/kg/injection, schedule: Q04DX003 (ip), vehicle: acetone
  survivor count: 5 of 6
dose: 170.0 mg/kg/injection, schedule: Q04DX003 (ip), vehicle: saline
  survivor count: 3 of 6
dose: 200.0 mg/kg/injection, schedule: Q04DX003 (ip), vehicle: acetone
  survivor count: 3 of 6
[3]
  survivor count: 1 of 6
dose: 400.0 mg/kg/injection, schedule: Q04DX003 (ip), vehicle: acetone
  survivor count: 0 of 6
[4]
  survivor count: 0 of 6

## O=[N+]([O-])c1cnccc1Nc1ccncc1
dose: 400.0 mg/kg/injection, schedule: Q04DX003 (ip), vehicle: saline with Tween-80
  survivor count: 5 of 6

## Cc1noc(C)c1CON
dose: 150.0 mg/kg/injection, schedule: Q01DX001 (ip), vehicle: saline
  survivor count: 6 of 6

## CC(C)CN=C(N)N=C(N)N
dose: 200.0 mg/kg/injection, schedule: Q01DX009 (ip), vehicle: water
  survivor count: 1 of 6
dose: 400.0 mg/kg/injection, schedule: Q01DX001 (ip), vehicle: water
  survivor count: 2 of 6

## C[N+](C)(Cc1ccccc1)CC(O)COc1ccccc1 (stereo unspecified)
dose: 100.0 mg/kg/injection, schedule: Q01DX001 (ip), vehicle: saline with Tween-80
  survivor count: 0 of 6
dose: 200.0 mg/kg/injection, schedule: Q01DX001 (ip), vehicle: saline with Tween-80
  survivor count: 1 of 6
dose: 400.0 mg/kg/injection, schedule: Q01DX001 (ip), vehicle: saline with Tween-80
  survivor count: 0 of 6
